From patent US20200399382A1 (ARGENX, published 2020)
No constants are given. Whether binding was seen depends on the method and setting. Some results given as binding are weak or reduced against the parent protein; the word gives no strength.

Biological target: T1, IL-5Rα (immobilised in the SPR competition assay) (Mus musculus (Mouse)) (UniProt P21183)
T1 sequence: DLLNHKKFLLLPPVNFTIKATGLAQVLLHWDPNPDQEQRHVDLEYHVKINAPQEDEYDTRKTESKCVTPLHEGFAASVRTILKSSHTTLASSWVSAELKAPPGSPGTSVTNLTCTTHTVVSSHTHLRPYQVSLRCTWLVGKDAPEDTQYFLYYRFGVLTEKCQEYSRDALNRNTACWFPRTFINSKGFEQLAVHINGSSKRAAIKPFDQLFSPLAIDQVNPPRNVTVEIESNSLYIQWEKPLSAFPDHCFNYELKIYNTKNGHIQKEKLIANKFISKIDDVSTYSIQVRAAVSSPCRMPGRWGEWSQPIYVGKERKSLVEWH
Experiment: SPR, IL-5Rα coated, IL-5 injected [c]

binding: binds
B1: mouse IL-5 (ligand, UniProt P04401 21-133, looked up)
chain: MEIPMSTVVKETLTQLSAHRALLTSNETMRLPVPTHKNHQLCIGEIFQGLDILKNQTVRGGTVEMLFQNLSLIKKYIDRQKEKCGEERRRTRQFLDYLQEFLGVMSTEWAMEG
